From US20030060472A1, “Novel substituted nitrocatechols, their use in the treatment of some central and peripheral nervous system disorders and pharmaceutical compositions containing them” (priority 2001, published 2003)
Some of these results come from one statement about several compounds together.

Test system: Liver COMT
Assay: Ex vivo COMT activity in mice liver homogenates after administration by gastric tube
Settings: for Time to maximal inhibitory effect on liver COMT: after oral administration; for Inhibition of liver COMT: oral administration

SMILES | Time to maximal inhibitory effect on liver COMT [h] | Inhibition of liver COMT
Cl.O=C(CCN1CCc2ccccc2C1)c1cc(O)c(O)c([N+](=O)[O-])c1 [Compound 27, 3-(3,4-Dihydro-1H-isoquinolin-2-yl)-1-(3,4-dihydroxy-5-nitro-phenyl)-propan-1-one hydrochloride] | ≤ 1 | potent inhibitors of liver COMT
Cl.O=C(CC(c1ccccc1)N1CCOCC1)c1cc(O)c(O)c([N+](=O)[O-])c1 (centres unmarked) [Compound 5, 1-(3,4-Dihydroxy-5-nitro-phenyl)-3-morpholin-4-yl-3-phenyl-propan-1-one hydrochloride] | ≤ 1 | potent inhibitors of liver COMT
Cl.O=C(CCN1CCCCCCC1)c1cc(O)c(O)c([N+](=O)[O-])c1 [Compound 16, 3-Azocan-1-yl-1-(3,4-dihydroxy-5-nitro-phenyl)-propan-1-one hydrochloride] | ≤ 1 | potent inhibitors of liver COMT
Cl.O=C(CN1CCCCCC1)c1cc(O)c(O)c([N+](=O)[O-])c1 [Compound 1, 2-Azepan-1-yl-1-(3,4-dihydroxy-5-nitro-phenyl)-ethanone hydrochloride] | ≤ 1 | potent inhibitors of liver COMT
CC1CN(CC(=O)c2cc(O)c(O)c([N+](=O)[O-])c2)CC(C)O1.Cl (centres unmarked) [Compound 11, 1-(3,4-Dihydroxy-5-nitro-phenyl)-2-(2,6-dimethyl-morpholin-4-yl)-ethanone hydrochloride] | ≤ 1 | potent inhibitors of liver COMT
CC1CCCCN1CC(=O)c1cc(O)c(O)c([N+](=O)[O-])c1.Cl (centres unmarked) [Compound 6, 1-(3,4-Dihydroxy-5-nitro-phenyl)-2-(2-methyl-piperidin-1-yl)-ethanone hydrochloride] | ≤ 1 | potent inhibitors of liver COMT
Cl.O=C(CCN1CCCCCC1)c1cc(O)c(O)c([N+](=O)[O-])c1 [Compound 20, 3-Azepan-1-yl-1-(3,4-dihydroxy-5-nitro-phenyl)-propan-1-one hydrochloride] | ≤ 1 | potent inhibitors of liver COMT
Cl.O=C(CC(c1ccccc1)N1CCCC1)c1cc(O)c(O)c([N+](=O)[O-])c1 (centres unmarked) [Compound 4, 1-(3,4-Dihydroxy-5-nitro-phenyl)-3-phenyl-3-pyrrolidin-1-yl-propan-1-one hydrochloride] | ≤ 1 | potent inhibitors of liver COMT
Cl.O=C(CCN1CCSCC1)c1cc(O)c(O)c([N+](=O)[O-])c1 [Compound 19, 1-(3,4-Dihydroxy-5-nitro-phenyl)-3-thiomorpholin-4-yl-propan-1-one hydrochloride] | ≤ 1 | potent inhibitors of liver COMT
Cl.Cl.O=C(CCN1CCN(C(=O)c2ccccc2)CC1)c1cc(O)c(O)c([N+](=O)[O-])c1 [Compound 29, 3-(4-Benzoyl-piperazin-1-yl)-1-(3,4-dihydroxy-5-nitro-phenyl)-propan-1-one dihydrochloride] | ≤ 1 | potent inhibitors of liver COMT
Cl.Cl.O=C(CCN1CCN(c2ccccc2Cl)CC1)c1cc(O)c(O)c([N+](=O)[O-])c1 [Compound 22, 3-[4-(2-Chloro-phenyl)-piperazin-1-yl]-1-(3,4-dihydroxy-5-nitro-phenyl)-propan-1-one dihydrochloride] | ≤ 1 | potent inhibitors of liver COMT
Cl.Cl.O=C(CCN1CCN(c2cccc(C(F)(F)F)c2)CC1)c1cc(O)c(O)c([N+](=O)[O-])c1 [Compound 18, 1-(3,4-Dihydroxy-5-nitro-phenyl)-3-[4-(3-trifluoromethyl-phenyl)-piperazin-1-yl]-propan-1-one dihydrochloride] | ≤ 1 | potent inhibitors of liver COMT
Cl.O=C(CC(c1ccccc1)N1CCCCC1)c1cc(O)c(O)c([N+](=O)[O-])c1 (centres unmarked) [Compound 3, 1-(3,4-Dihydroxy-5-nitro-phenyl)-3-phenyl-3-piperidin-1-yl-propan-1-one hydrochloride] | ≤ 1 | potent inhibitors of liver COMT
O=C(COc1ccccc1)c1cc(O)c(O)c([N+](=O)[O-])c1 [Compound 8, 1-(3,4-Dihydroxy-5-nitro-phenyl)-2-phenoxy-ethanone] | ≤ 1 | potent inhibitors of liver COMT
COc1ccc(C(=O)N2CCN(CCC(=O)c3cc(O)c(O)c([N+](=O)[O-])c3)CC2)cc1.Cl.Cl [Compound 30, 1-(3,4-Dihydroxy-5-nitro-phenyl)-3-[4-(4-methoxy-benzoyl)-piperazin-1-yl]-propan-1-one dihydrochloride] | ≤ 1 | potent inhibitors of liver COMT
Cl.Cl.Cl.Cl.O=C(CCN1CCN(c2ncccn2)CC1)c1cc(O)c(O)c([N+](=O)[O-])c1 [Compound 23, 1-(3,4-Dihydroxy-5-nitro-phenyl)-3-(4-pyrimidin-2-yl-piperazin-1-yl)-propan-1-one tetrahydrochloride] | ≤ 1 | potent inhibitors of liver COMT
CC1CCCCN1CCC(=O)c1cc(O)c(O)c([N+](=O)[O-])c1.Cl (centres unmarked) [Compound 26, 1-(3,4-Dihydroxy-5-nitro-phenyl)-3-(2-methyl-piperidin-1-yl)-propan-1-one hydrochloride] | ≤ 1 | potent inhibitors of liver COMT
Cl.Cl.O=C(CN1CCN(c2cccc(C(F)(F)F)c2)CC1)c1cc(O)c(O)c([N+](=O)[O-])c1 [Compound 13, 1-(3,4-Dihydroxy-5-nitro-phenyl)-2-[4-(3-trifluoromethyl-phenyl)-piperazin-1-yl]-ethanone dihydrochloride] | ≤ 1 | potent inhibitors of liver COMT
Cl.O=C(CCN1CCCCC1)c1cc(O)c(O)c([N+](=O)[O-])c1 [Compound 2, 1-(3,4-Dihydroxy-5-nitro-phenyl)-3-piperidin-1-yl-propan-1-one hydrochloride] | ≤ 1 | potent inhibitors of liver COMT
CC1CC(C)CN(CC(=O)c2cc(O)c(O)c([N+](=O)[O-])c2)C1.Cl (centres unmarked) [Compound 12, 1-(3,4-Dihydroxy-5-nitro-phenyl)-2-(3,5-dimethyl-piperidin-1-yl)-ethanone hydrochloride] | ≤ 1 | potent inhibitors of liver COMT
Cc1ccc(SCC(=O)c2cc(O)c(O)c([N+](=O)[O-])c2)cc1 [Compound 28, 1-(3,4-Dihydroxy-5-nitro-phenyl)-2-p-tolylsulphanyl-ethanone] | ≤ 1 | potent inhibitors of liver COMT
Cl.O=C(CN1CCc2ccccc2C1)c1cc(O)c(O)c([N+](=O)[O-])c1 [Compound 21, 2-(3,4-Dihydro-1H-isoquinolin-2-yl)-1-(3,4-dihydroxy-5-nitro-phenyl)-ethanone hydrochloride] | ≤ 1 | potent inhibitors of liver COMT
COc1ccc(OCC(=O)c2cc(O)c(O)c([N+](=O)[O-])c2)cc1 [Compound 9, 1-(3,4-Dihydroxy-5-nitro-phenyl)-2-(4-methoxy-phenoxy)-ethanone] | ≤ 1 | potent inhibitors of liver COMT
CCOC(=O)C1CCN(CCC(=O)c2cc(O)c(O)c([N+](=O)[O-])c2)CC1.Cl [Compound 17, 1-[3-(3,4-Dihydroxy-5-nitro-phenyl)-3-oxo-propyl]-piperidine4-carboxylic acid ethyl ester hydrochloride] | ≤ 1 | potent inhibitors of liver COMT
Cl.Cl.Cl.O=C(CN1CCN(c2ccccn2)CC1)c1cc(O)c(O)c([N+](=O)[O-])c1 [Compound 14, 1-(3,4-Dihydroxy-5-nitro-phenyl)-2-(4-pyridin-2-yl-piperazin-1-yl)-ethanone trihydrochloride] | ≤ 1 | potent inhibitors of liver COMT
Cl.O=C(CCN1CCC(Cc2ccccc2)CC1)c1cc(O)c(O)c([N+](=O)[O-])c1 [Compound 24, 3-(4-Benzyl-piperidin-1-yl)-1-(3,4-dihydroxy-5-nitro-phenyl)-propan-1-one hydrochloride] | ≤ 1 | potent inhibitors of liver COMT
O=C(COc1cccc2ccccc12)c1cc(O)c(O)c([N+](=O)[O-])c1 [Compound 25, 1-(3,4-Dihydroxy-5-nitro-phenyl)-2-(naphthalen-1-yloxy)-ethanone] | ≤ 1 | potent inhibitors of liver COMT
O=C(COc1ccc2ccccc2c1)c1cc(O)c(O)c([N+](=O)[O-])c1 [Compound 10, 1-(3,4-Dihydroxy-5-nitro-phenyl)-2-(naphthalen-2-yloxy)-ethanone] | ≤ 1 | potent inhibitors of liver COMT
